According to the supplement of paper PMC10849652:
The list shows a part of the results.

By UniProt entry, the sequences of proteins in these tests, tags left out. Where a name states a change or a piece, a line headed by the entry shows the natural chain unless it says otherwise.
UniProt Q8TBE9: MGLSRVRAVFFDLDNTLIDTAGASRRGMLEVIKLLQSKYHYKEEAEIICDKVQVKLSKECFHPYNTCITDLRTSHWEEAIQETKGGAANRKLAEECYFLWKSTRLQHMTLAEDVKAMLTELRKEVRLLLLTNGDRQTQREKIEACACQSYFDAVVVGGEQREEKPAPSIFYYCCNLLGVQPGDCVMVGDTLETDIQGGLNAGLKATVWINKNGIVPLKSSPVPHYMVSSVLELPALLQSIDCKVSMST
UniProt O43676, whole entry, looked up: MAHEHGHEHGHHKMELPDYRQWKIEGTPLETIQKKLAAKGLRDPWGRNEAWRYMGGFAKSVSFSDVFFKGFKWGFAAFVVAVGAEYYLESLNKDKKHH
UniProt Q9NVZ3: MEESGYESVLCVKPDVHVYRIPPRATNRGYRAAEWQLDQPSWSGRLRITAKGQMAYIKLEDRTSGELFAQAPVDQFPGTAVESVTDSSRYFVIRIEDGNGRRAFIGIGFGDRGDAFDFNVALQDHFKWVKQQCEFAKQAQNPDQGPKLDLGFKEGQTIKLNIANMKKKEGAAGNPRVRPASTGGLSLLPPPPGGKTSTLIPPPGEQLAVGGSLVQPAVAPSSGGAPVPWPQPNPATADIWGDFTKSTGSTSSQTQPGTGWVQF
UniProt Q9UBB6: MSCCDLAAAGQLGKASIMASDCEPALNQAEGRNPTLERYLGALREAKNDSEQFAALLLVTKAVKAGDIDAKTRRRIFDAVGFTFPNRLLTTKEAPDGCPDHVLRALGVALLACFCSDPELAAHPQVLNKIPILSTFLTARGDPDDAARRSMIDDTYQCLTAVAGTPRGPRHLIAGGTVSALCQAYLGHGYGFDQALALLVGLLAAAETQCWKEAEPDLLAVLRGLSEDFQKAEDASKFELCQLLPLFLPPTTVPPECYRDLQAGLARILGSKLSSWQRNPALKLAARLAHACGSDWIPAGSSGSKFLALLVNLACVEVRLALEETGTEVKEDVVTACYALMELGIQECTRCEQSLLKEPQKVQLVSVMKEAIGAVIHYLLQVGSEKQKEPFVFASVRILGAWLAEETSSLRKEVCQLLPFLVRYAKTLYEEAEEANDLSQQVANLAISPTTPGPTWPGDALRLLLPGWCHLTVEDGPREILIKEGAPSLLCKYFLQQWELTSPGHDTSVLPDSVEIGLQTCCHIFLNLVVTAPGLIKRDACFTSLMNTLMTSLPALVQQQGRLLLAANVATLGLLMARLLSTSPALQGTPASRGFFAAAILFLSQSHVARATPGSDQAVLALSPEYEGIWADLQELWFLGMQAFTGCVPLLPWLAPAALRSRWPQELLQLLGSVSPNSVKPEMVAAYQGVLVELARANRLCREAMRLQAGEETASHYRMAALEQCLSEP
UniProt P51970, whole entry, looked up: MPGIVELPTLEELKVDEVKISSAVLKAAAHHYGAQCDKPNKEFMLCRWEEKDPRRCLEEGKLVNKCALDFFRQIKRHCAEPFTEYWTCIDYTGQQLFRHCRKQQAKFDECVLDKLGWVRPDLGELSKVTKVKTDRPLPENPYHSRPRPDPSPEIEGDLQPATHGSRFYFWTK
UniProt P62166, whole entry, looked up: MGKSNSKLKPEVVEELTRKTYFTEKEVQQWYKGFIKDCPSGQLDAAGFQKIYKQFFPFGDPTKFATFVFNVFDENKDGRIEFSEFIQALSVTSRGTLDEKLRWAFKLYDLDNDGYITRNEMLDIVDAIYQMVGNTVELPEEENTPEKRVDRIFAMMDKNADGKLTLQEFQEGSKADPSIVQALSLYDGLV
UniProt Q9UHB4: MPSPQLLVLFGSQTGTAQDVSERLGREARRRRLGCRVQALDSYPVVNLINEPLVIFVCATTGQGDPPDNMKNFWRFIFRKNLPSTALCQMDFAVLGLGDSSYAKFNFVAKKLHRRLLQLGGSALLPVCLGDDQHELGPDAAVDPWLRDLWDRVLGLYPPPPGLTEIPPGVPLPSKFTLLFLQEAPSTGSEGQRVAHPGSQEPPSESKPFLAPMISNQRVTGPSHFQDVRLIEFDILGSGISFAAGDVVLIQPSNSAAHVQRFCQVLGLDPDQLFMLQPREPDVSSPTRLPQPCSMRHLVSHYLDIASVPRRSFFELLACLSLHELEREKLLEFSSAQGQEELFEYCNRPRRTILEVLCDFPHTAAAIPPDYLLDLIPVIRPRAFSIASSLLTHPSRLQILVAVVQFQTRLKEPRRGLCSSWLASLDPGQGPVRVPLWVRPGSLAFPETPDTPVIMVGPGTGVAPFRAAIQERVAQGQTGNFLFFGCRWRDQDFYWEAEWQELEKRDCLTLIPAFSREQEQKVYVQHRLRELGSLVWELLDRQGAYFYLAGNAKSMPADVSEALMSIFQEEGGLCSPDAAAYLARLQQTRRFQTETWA
UniProt Q9Y375: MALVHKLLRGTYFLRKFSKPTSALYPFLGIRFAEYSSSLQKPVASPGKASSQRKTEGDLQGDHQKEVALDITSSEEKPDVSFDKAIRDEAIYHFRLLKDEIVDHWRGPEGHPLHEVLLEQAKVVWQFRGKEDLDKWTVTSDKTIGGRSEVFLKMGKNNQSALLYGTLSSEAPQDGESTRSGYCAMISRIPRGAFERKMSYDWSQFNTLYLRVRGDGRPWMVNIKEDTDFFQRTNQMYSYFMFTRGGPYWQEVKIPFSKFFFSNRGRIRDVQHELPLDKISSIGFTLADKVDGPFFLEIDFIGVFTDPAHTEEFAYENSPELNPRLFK
UniProt A2RRP1: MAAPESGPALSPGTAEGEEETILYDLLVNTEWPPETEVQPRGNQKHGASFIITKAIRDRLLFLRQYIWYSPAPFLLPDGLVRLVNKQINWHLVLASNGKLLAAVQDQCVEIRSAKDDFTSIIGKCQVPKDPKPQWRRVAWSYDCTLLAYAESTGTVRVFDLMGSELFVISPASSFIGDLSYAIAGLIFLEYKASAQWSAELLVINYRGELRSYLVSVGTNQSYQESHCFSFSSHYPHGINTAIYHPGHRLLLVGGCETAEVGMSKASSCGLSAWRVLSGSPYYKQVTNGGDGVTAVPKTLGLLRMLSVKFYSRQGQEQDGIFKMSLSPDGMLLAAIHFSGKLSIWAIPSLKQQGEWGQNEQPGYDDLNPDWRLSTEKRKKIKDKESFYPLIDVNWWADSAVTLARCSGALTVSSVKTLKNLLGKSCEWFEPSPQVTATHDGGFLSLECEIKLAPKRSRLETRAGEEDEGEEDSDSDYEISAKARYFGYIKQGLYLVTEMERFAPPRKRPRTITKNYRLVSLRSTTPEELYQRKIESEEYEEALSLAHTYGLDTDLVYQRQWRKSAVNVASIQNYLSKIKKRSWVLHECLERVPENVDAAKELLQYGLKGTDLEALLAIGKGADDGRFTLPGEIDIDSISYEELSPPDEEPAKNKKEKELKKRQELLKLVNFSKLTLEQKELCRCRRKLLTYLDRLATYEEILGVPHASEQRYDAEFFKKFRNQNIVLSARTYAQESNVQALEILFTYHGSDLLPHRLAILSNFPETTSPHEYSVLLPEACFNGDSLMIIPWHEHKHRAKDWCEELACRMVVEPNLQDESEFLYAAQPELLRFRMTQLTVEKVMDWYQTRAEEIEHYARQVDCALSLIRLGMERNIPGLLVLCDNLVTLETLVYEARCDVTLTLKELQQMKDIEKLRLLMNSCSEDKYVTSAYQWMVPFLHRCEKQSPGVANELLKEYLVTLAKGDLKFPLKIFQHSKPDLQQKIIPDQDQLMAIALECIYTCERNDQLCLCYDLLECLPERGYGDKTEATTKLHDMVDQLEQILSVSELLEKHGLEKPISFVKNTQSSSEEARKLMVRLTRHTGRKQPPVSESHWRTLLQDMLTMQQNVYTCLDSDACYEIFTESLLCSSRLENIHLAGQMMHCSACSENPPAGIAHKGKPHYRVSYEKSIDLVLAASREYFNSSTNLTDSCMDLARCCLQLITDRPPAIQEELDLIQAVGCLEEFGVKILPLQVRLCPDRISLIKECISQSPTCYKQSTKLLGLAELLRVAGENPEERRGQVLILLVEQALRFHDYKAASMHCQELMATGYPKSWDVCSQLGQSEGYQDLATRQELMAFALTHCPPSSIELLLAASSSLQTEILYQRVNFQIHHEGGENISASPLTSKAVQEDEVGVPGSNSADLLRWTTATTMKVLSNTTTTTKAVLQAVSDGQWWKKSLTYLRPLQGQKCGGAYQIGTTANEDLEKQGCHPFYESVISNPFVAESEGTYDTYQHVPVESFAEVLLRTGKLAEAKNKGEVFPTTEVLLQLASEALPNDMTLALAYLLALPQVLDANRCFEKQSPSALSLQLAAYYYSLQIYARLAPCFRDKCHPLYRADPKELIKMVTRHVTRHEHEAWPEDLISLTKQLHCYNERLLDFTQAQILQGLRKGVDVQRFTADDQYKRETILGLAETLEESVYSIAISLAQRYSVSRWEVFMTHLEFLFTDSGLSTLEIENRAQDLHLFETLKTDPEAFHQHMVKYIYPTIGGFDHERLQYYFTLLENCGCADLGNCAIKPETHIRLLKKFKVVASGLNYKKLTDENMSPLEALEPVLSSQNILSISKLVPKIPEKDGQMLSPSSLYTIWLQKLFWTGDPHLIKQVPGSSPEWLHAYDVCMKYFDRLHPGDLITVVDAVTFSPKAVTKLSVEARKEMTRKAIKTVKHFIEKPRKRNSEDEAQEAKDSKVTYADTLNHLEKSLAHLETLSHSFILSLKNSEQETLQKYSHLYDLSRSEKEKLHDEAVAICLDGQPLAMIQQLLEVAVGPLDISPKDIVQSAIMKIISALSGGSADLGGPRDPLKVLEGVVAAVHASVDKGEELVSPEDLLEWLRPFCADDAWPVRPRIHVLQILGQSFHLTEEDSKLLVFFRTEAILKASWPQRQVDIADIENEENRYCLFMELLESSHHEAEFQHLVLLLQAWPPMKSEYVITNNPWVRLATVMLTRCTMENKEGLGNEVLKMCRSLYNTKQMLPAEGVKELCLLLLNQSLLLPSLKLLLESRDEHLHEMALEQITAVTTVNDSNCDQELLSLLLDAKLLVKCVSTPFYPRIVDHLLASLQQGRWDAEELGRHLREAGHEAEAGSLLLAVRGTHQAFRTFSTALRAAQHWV
UniProt P61599, whole entry, looked up: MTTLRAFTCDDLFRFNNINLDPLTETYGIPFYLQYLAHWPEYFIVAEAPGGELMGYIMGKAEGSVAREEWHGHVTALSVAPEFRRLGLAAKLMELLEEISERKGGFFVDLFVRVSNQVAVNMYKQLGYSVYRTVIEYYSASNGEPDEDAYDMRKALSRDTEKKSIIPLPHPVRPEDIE
UniProt O43920, whole entry, looked up: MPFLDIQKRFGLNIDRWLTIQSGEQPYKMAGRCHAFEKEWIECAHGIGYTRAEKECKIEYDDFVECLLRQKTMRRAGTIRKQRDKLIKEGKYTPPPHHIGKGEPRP
UniProt Q9GZM8: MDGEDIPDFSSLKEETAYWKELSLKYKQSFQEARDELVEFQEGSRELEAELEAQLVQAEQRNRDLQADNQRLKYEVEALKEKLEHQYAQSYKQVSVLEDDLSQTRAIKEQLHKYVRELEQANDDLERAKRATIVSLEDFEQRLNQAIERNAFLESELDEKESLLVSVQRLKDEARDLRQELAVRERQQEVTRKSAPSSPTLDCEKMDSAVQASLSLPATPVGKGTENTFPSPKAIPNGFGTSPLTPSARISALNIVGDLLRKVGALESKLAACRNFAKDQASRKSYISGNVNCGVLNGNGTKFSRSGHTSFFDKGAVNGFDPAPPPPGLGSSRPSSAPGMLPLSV
NBDY, A0A0U1RRE5, UniProt A0A0U1RRE5, whole entry, looked up: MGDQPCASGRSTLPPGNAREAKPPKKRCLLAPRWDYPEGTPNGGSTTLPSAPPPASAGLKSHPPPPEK
UniProt Q96HR8: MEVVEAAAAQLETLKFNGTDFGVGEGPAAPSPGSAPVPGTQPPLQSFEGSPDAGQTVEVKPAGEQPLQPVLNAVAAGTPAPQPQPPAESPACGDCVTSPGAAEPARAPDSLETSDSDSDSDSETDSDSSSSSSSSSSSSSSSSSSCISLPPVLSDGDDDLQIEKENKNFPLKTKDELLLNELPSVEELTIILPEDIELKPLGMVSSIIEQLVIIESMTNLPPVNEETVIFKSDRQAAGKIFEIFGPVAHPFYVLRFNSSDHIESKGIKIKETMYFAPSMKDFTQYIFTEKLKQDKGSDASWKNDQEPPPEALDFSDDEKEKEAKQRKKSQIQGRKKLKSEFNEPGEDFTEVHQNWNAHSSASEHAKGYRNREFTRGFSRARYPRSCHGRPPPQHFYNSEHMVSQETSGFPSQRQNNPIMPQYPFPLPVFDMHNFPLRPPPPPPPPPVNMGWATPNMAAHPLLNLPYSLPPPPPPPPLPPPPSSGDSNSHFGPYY
UniProt P55209: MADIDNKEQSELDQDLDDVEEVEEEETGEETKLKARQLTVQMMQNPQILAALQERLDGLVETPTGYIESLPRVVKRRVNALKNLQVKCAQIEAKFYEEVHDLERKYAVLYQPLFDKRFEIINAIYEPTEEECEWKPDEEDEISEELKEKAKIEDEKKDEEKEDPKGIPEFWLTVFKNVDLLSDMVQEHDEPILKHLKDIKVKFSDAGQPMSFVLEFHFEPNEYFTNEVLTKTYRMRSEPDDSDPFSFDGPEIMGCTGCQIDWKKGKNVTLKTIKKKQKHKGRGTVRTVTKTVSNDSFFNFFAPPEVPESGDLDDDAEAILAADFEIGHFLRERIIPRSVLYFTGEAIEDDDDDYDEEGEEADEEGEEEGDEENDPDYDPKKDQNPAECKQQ

Experiments:
Assay in all cases: log2 fold change, soluble protein after heating vs DMSO (PISA); higher = thermal stabilisation; K562 cells, 10 uM, 30 min; active = over 0.2 and 3.5 SD of the protein, either way, in both replicates (recomputed)
[1] = compound: C1=CC=C(C=C1)[C@H](COC2=CC3=C(C=C2)NC(=O)N3)NC(=O)C4=CC=CN(C4=O)CC5=CC(=C(C=C5)F)F
Summary of the method: (§1)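 K562 cells at 2×10^6 cells/mL were treated for 30 min with 10 μM compound, and aliquots were heated for 3 min over 48°C-58°C before pooling. Extraction used PBS with 0.5% NP-40 at 4°C, and soluble protein was the supernatant after 21,000xg for 90 min, measured by TMTpro 16plex LC-MS/MS with channel sums equalised. Thermal stability values, relative to control samples and from duplicates, are log2 fold changes.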

[2] = compound: CC1=C(SC2=C1C(=N[C@H](C3=NN=C(N32)C)CC(=O)N)C4=CC=C(C=C4)Cl)C
Summary of the method: as §1

[3] = compound: CC1=C2C(=CC=C1)N=C(N(C2=O)C3=CC=CC=C3C)CN4C=NC5=C(N=CN=C54)N
Summary of the method: as §1

[4] = compound: Cc1sc2c(c1C)C(c1ccc(Cl)cc1)=N[C@@H](CC(=O)OC(C)(C)C)c1nnc(C)n1-2
Summary of the method: as §1

[5] = compound: c1ccc([C@@H]2C[C@H]2NC2CCNCC2)cc1
Summary of the method: as §1

Measured: log2 fold change

NANP (UniProt Q8TBE9)
inactive: [1] -0.041 | [2] 0.053 | [3] 0.105 | [4] 0.023 | [5] 0.013

NDUFB3 (UniProt O43676)
inactive: [1] 0.04 | [2] 0.014 | [3] 0.024 | [4] -0.006 | [5] 0.052

NECAP2 (UniProt Q9NVZ3)
inactive: [1] -0.031 | [2] 0.017 | [3] 0.056 | [4] 0 | [5] -0.014

NCDN isoform 3 (UniProt Q9UBB6)
inactive: [1] -0.077 | [2] 0.021 | [3] 0.076 | [4] -0.023 | [5] -0.014

NDUFA8 (UniProt P51970)
inactive: [1] 0 | [2] -0.011 | [3] 0 | [4] 0.003 | [5] -0.006

NCS1 (UniProt P62166)
inactive: [1] 0.005 | [2] 0.052 | [3] 0.059 | [4] -0.025 | [5] -0.017

NDUFS1 isoform 2 (UniProt P28331)
inactive: [1] -0.021 | [2] 0.056 | [3] 0.075 | [4] -0.041 | [5] -0.024

NDOR1 isoform 2 (UniProt Q9UHB4)
inactive: [1] 0.057 | [2] 0.042 | [3] 0.075 | [4] -0.015 | [5] -0.036

NDUFAF1 (UniProt Q9Y375)
inactive: [1] 0.084 | [2] 0.02 | [3] 0.092 | [4] 0.028 | [5] 0.043

NAGPA (UniProt Q9UK23)
inactive: [1] 0.179 | [2] -0.048 | [4] -0.004 | [5] 0.061

NA, A0A2R8Y3M9
inactive: [1] -0.093 | [2] -0.069 | [5] 0.161

NBAS (UniProt A2RRP1)
inactive: [1] 0.078 | [2] -0.137 | [3] -0.033 | [4] 0.11 | [5] -0.094

Retrieved one by one from the entries so far, two records:
NAGPA (UniProt Q9UK23)
inactive: [1] 0.179 | [2] -0.048 | [4] -0.004 | [5] 0.061

NDOR1 isoform 2 (UniProt Q9UHB4)
inactive: [1] 0.057 | [2] 0.042 | [3] 0.075 | [4] -0.015 | [5] -0.036

Remaining list, next part

NDUFA7 (UniProt M0R0N0)
inactive: [1] -0.091 | [3] 0.23

NEB isoform 3 (UniProt P20929)
inactive: [1] 0.024 | [2] -0.026 | [3] 0.136 | [5] 0.274

NAA20 (UniProt P61599)
inactive: [1] 0.004 | [2] 0.067 | [3] 0.159 | [4] -0.123 | [5] -0.046

NDUFS5 (UniProt O43920)
inactive: [1] 0.036 | [2] -0.02 | [3] -0.002 | [4] 0.007 | [5] -0.006

NCOA6 (UniProt Q14686)
inactive: [1] -0.051 | [3] -0.142 | [4] -0.15

NDEL1 isoform 2 (UniProt Q9GZM8)
inactive: [1] -0.089 | [2] 0.063 | [3] 0.01 | [4] 0.025 | [5] -0.103

NAMPT (UniProt C9JF35)
inactive: [1] -0.078 | [2] -0.091 | [4] 0.009 | [5] -0.087

NA, A0A096LPI6
inactive: [1] 0.055 | [2] -0.023 | [3] -0.001 | [4] 0.017 | [5] 0.023

NAAA (UniProt Q02083)
inactive: [2] -0.374 | [5] 0.113

NECTIN2 isoform 2 (UniProt Q92692)
inactive: [1] 0.179 | [3] -0.03

NCOR2 (UniProt C9J0Q5)
inactive: [1] -0.019 | [2] -0.035 | [3] 0.143 | [4] -0.049 | [5] 0.024

NBDY, A0A0U1RRE5
inactive: [1] -0.046 | [2] 0.337 | [4] 0.006 | [5] 0.118

NAF1 (UniProt Q96HR8)
inactive: [1] 0.032 | [2] -0.001 | [3] -0.087 | [4] -0.011 | [5] -0.009

NCOA1 (UniProt Q15788)
inactive: [1] -0.155 | [2] -0.032 | [3] 0.156 | [4] 0.007 | [5] 0.012

NAP1L1 (UniProt P55209)
inactive: [1] -0.072 | [2] 0.003 | [3] 0.17 | [4] 0.013 | [5] 0.009
